PubChem BioAssay AID1259254 – NCATS – 2017
Shown is a random part of about 59,000 deposited reagents. In the full data, about 1,550 (2.6%) got an active call. 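G2 share is only a proxy for re-replication; each gene was hit by three separate siRNAs, and active genes were retested.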 Raw values vary from plate to plate and are shown uncorrected. A number with no mark means an inactive call. Reagents against one gene are numbered here. Reagent sequences are not shown. Not stated in the record: the amount of reagent.

Purpose: 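Finding genes that stop cells copying their DNA twice in one cycle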 (primary screen)
Cells: human HCT116 colorectal cancer cells
Knock-down reagent: single siRNA against human genes
Time to read-out: 3 days
Read-out: 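Nuclei stained with Hoechst and imaged; cell-cycle phase assigned by DNA content; G2 share scaled per plate, non-targeting siRNA 0%, GMNN siRNA 100%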
Direction: G2 robust z-score and G2 cells, % of GMNN control: higher = more G2 cells, more excess DNA replication; raw share of cells in G2: higher = larger share of cells with G2 DNA content
Hit rule: 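An siRNA counts as active if its G2 robust z-score lies at least 5 MADs above the screen median; here such calls match roughly 38% of GMNN control or more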

target gene	reagent	G2 robust z-score	G2 cells, % of GMNN control	raw share of cells in G2 (%)
FOXE1	1	2.58	21.1	13.3
FOXE1	2	1.12	10.9	9.18
FOXE1	3	0.0357	3.22	4.8
ALPL	1	3.41	27	13.6
ALPL	2	-0.721	-2.1	3.67
ALPL	3	-0.13	2.05	4.11
ARHGEF18	1	-0.86	-3.08	5.13
ARHGEF18	2	-0.853	-3.03	3.14
ARHGEF18	3	2.61	21.3	11.2
KRTAP4-2	1	-0.538	-0.816	3.74
KRTAP4-2	2	0.951	9.66	6.03
KRTAP4-2	3	1.05	10.4	6.22
DAD1	1	-1.34	-6.48	1.86
DAD1	2	-0.656	-1.65	4.39
DAD1	3	-0.39	0.221	5.04
RPAP2	1	-1.21	-5.52	2.15
RPAP2	2	-0.599	-1.25	3.76
RPAP2	3	0.55	6.84	4.25
NUP107	1	-0.332	0.634	6.71
NUP107	2	4.86	37.2	17.8
NUP107	3	0.0625	3.41	5.75
LOC648570 (retired record)	1	0.486	6.39	5.07
LOC648570 (retired record)	2	-0.555	-0.937	3.42
LOC648570 (retired record)	3	-1.01	-4.15	1.69
CABP1	1	0.236	4.63	8.05
CABP1	2	-0.163	1.82	4.1
CABP1	3	-0.808	-2.72	2.62
WIPF1	1	-0.334	0.62	5.41
WIPF1	2	1.31	12.2	8.72
WIPF1	3	0.346	5.4	5.26
TM4SF19	1	-0.963	-3.81	2.57
TM4SF19	2	-1.05	-4.42	2.01
TM4SF19	3	0.571	6.99	3.86
LRIG1	1	4.5	34.6	15.3
LRIG1	2	7.17 (active)	53.4	30.4
LRIG1	3	0.849	8.94	7.16
GSDMC	1	-0.3	0.854	4.68
GSDMC	2	0.0888	3.59	6.18
GSDMC	3	-0.523	-0.71	2.8
GAS8-AS1	1	2.98	23.9	12.9
GAS8-AS1	2	1.77	15.4	12.5
GAS8-AS1	3	0.00128	2.98	4.69
WNT9B	1	1.7	14.9	11.7
WNT9B	2	0.247	4.71	5.76
WNT9B	3	-0.875	-3.19	2.22
KYNUP2	1	1.73	15.1	8.2
KYNUP2	2	-0.194	1.6	3.73
KYNUP2	3	0.012	3.05	5.1
FANCF	1	8.67 (active)	64	35.3
FANCF	2	0.943	9.6	7.6
FANCF	3	0.343	5.38	5.63
LRRTM4	1	-0.541	-0.837	4.48
LRRTM4	2	-0.189	1.64	4.79
LRRTM4	3	-0.776	-2.49	4.39
PCSK7	1	-0.621	-1.4	5.07
PCSK7	2	4.22	32.6	16.5
PCSK7	3	-0.804	-2.69	2.91
IBA57	1	2.93	23.6	10.2
IBA57	2	-0.0709	2.47	4.49
IBA57	3	1.5	13.5	7.48
C16orf86	1	-0.111	2.19	5.57
C16orf86	2	0.232	4.6	5.35
C16orf86	3	-0.00506	2.93	4.68
CFHR4	1	-0.965	-3.82	2.25
CFHR4	2	-0.788	-2.58	4.84
CFHR4	3	2.36	19.6	11.5
VPS13C	1	-0.18	1.7	4.21
VPS13C	2	-0.277	1.02	4.7
VPS13C	3	-1.06	-4.48	1.71
